Test results reported in article PMC3155019, “Dynamics of the Phosphoinositide 3-Kinase p110δ Interaction with p85α and Membranes Reveals Aspects of Regulation Distinct from p110α” (Structure(London, England:1993), 2011).
No constants are given. Whether binding was seen depends on the method and setting. Some entries that bind do so weakly or less than the wild type.

Amino acid sequences for entries named in this document (tags omitted). A change or cut given only in a name is not applied to a line headed by its entry.
UniProt O00329: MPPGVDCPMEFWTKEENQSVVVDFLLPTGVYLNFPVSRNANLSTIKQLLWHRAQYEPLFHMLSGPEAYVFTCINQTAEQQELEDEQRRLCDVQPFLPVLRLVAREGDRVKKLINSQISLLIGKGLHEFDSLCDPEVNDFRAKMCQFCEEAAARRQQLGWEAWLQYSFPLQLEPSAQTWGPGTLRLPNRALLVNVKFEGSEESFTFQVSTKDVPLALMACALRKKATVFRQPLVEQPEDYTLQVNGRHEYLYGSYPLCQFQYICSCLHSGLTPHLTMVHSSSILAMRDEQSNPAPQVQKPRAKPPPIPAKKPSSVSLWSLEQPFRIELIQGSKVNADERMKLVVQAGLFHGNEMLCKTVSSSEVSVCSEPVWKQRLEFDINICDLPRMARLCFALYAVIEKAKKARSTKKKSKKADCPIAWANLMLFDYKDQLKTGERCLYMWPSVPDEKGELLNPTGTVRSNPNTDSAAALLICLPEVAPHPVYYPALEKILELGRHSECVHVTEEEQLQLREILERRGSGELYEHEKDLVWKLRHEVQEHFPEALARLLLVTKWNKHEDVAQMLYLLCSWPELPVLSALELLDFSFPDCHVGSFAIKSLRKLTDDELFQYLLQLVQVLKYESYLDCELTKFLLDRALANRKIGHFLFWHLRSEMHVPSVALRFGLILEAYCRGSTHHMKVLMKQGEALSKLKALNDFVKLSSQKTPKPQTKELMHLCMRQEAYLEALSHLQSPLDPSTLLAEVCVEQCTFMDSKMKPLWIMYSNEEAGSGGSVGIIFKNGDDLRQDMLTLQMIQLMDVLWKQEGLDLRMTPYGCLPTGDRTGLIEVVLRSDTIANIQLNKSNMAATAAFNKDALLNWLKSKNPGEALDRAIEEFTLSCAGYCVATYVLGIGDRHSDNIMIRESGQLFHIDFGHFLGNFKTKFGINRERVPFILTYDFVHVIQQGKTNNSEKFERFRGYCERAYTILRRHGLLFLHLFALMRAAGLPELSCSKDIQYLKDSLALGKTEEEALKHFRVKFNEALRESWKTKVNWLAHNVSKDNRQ

Legend:
[1] = molecular target: p110δ+p85α nicSH2 complex (human | , UniProt O00329 1-1044; P27986 322-724); assay: HDX-MS; purified p110δ+nicSH2 complex with or without PDGFR pY (200 μM before addition of deuterium, 40 μM by the legends), equilibrated 10 min; 82% D2O, 10 mM HEPES pD 7.2, 50 mM NaCl, 2 mM DTT; 3 to 3000 s at 23°C; both purified
[2] = molecular target: full length p110δ/p85α complex, wild type (UniProt O00329); assay: HDX-MS; purified full length p110δ/p85α complexes (wild type, K379E, Y685A, double mutant) with or without PDGFR pY; two time points (3 and 1000 s); both purified
[3] = molecular target: full length p110δ/p85α K379E, Y685A double mutant complex (UniProt O00329); assay: as above
[4] = molecular target: full length p110δ/p85α Y685A complex (UniProt O00329); assay: as above
[5] = molecular target: full length p110δ/p85α K379E complex (UniProt O00329); assay: as above

Measured: binding

ESDGGYMDMSKDESIDYVPMLDMKGDIKYADIE (phosphotyrosine at 740 and 751 (pY740, pY751)) [PDGFR bis-phosphorylated pY peptide (residues 735–767, with pY740 and pY751)]
binds: all assays above
